Data: the supplement of paper PMC3334620
Whole data set: some 33,000 sequences, median “E-score (-0.5 to 0.5)” near -8e-05, cut for the highest 2% near 0.23. Some of the results follow.

These sequences were tested against T1, Nrg2 (UniProt P38082) (assay: PBM E-score (8-mer binding enrichment) (E-score (-0.5 to 0.5)); higher = stronger / more preferred TF binding). Conditions: protein concentration: 100 nM; construct: GST-full length.
T1 sequence: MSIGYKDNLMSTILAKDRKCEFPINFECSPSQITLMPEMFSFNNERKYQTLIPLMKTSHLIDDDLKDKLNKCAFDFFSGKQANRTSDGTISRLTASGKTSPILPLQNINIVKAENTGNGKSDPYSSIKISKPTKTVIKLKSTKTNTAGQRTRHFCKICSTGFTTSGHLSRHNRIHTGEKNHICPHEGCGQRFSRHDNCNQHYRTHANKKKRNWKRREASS
Protocol: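 Universal 'all 10-mer' protein binding microarrays (Agilent AMADID 015681) probed with GST-tagged S. cerevisiae TFs (full-length or DBD) made by in vitro transcription/translation (PURExpress), about 100-200 nM. Bound TF was detected with fluorescent anti-GST. Each ungapped 8-mer (which stands for itself and its reverse complement) is scored by the PBM enrichment score (E-score), a modified Wilcoxon-Mann-Whitney statistic from -0.5 to +0.5, computed with the Universal PBM Analysis Suite. Scale: above 0.35 generally sequence-specific binding.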

Sequence	PBM E-score
AGGAGCCA	-0.101
AACACTCA	0.208
ACAGGCCG	-0.0282
CCTTAAAG	0.108
CCGTGGCG	-0.103
CATGGCGG	0.0147
ATACAGAA	0.185
CATTTAGG	-0.299
AGCTGGTG	0.0637
GCTTCGGA	-0.0285
CTGCAGAA	0.0924
CCGTTCGA	0.0944
CGCGGCTC	0.119
CAAGTTCA	0.114
GATTATGA	0.133
CAGATGCA	-0.158
AACCACGA	0.0948
CATAACCC	0.0485
AGAAACAA	0.258
GAATTGTA	-0.0393
CTTGCAAA	0.232
CCCGCCGA	0.0275
ACATTAAG	0.0681
ACCGGTTA	-0.0536
CCCAAGGC	-0.123

Sequence	PBM E-score
GGAGGCTA	-0.271
GTTGGGTA	-0.0214
ATAATCGC	-0.0299
CCAAAAAG	0.0203
GTGTTATA	0.063
ACCACGGG	-0.117
AATTTTAC	0.0932
GCCCCCCC	-0.352
AATTAGCT	-0.00883
AGCGCGAA	0.189
CTGCGGAA	-0.0361
GATATTCA	-0.00802
AGGGTTCG	0.187
TCCTTGAA	-0.139
CCAGGTCC	-0.205
ACGGATAT	0.121
TATTGACA	-0.0889
GTTATCTA	-0.105
CGACATCG	-0.162
ACAGCCCT	-0.142
CTCTCACC	0.0549
GACCAGCA	0.15
AACACCGT	-0.11
CCCTCTTA	0.0318
CAACGTAC	-0.0377

Sequence	PBM E-score
AAGGCTTG	-0.0246
ACTAAATA	0.125
CCAGCGGA	-0.35
CGATAGCG	0.124
ACGCATGC	0.186
GTCGCGGA	-0.0972
CAAGCATA	0.105
AGGGGTAT	0.0935
CTATAATA	0.0915
CACATCCA	0.125
GCATAGGC	-0.158
AACATAGC	0.0319
ACGCCGTA	-0.0872
ACAACACT	0.178
CCAAATAC	-0.0913
CTTGCAGA	-0.0148
CTCGGAAA	-0.0457
GGATGTTA	-0.0217
AAGCGAAC	0.0401
ATACGACC	-0.0857
CGCGCTCA	0.152
CTATTTCA	0.164
CTGGGCTA	-0.0565
AAATCATA	0.21
AGCGACGG	0.059

Sequence	PBM E-score
ACGAGCAG	0.0594
CGCCAGGA	-0.025
ACATTGGC	0.0134
CATCTTCC	0.00523
ACCGTCGT	0.0641
CACCGGAC	-0.183
GGGCGAAC	0.215
CGGGCGAA	0.1
GTCGGTTA	0.055
CGGAGAGA	0.00504
TAGCGATA	0.107
AGGCGAAA	-0.0977
CAGGATGG	-0.137
CAGGTTAC	-0.0498
AACCATGA	0.122
ATCCAACG	-0.165
AATGCATT	0.154
ACCCAGTG	-0.0368
AAGGAAAC	-0.128
GAATCCAA	0.0554
GACGGGAC	-0.222
ACACACTA	0.106
ATGTCCGA	-0.0732
AATGGGGC	-0.1
AGTGGACC	0.00243

Sequence	PBM E-score
CTGTAACC	0.108
CAGGGATG	0.211
CATTAAAC	0.0682
CGATTTAA	0.0703
GCTCTCCC	-0.163
AAAATATT	0.125
CCGGGAAA	-0.0767
AAAGCATG	-0.0309
ATTATGCA	-0.00258
GGGAGGGA	-0.00072
GATTTGGA	-0.0311
CATAAATC	0.0728
GAGTAACA	0.161
ATCTTCTA	-0.0225
AAGGGTCA	0.149
CACCCTGC	0.191
ACGGAAGC	-0.0173
TACCTCAA	-0.0423
GCATTCCC	-0.0654
CGCCAGCG	-0.125
AAGGTTTA	-0.24
ACATGATC	0.0795
TTGTGAAA	0.058
GAATTGCC	-0.0288
ATATTCCC	0.206

Sequence	PBM E-score
ATCAACTA	0.201
GCAAAGGA	0.077
ACATACCC	0.153
CAAGAGGA	-0.0666
GACCAACC	-0.0119
AAAGCAGA	0.136
AAAAATTA	0.149
CTGTCACA	-0.0114
GAAAGCCA	-0.0951
ATGCGTGC	0.00553
GAATGTCC	0.0313
TAGCTGGA	-0.22
AACTTTAA	0.125
ATGAAGAC	-0.0564
AAGGATCA	0.0364
CTCGTGGA	0.00055
GAGCGTGA	-0.143
ATAAGGCA	-0.0337
CGTACGCC	-0.146
GGGAGCTA	-0.162
ATGAGTTG	0.138
ATGTAGAA	0.00739
CACAGTTA	0.187
CAATCAAG	-0.0232
AAATCGCC	0.00869

Sequence	PBM E-score
CGAAAAGA	0.199
ACTAGGCG	0.11
CGAATCGA	0.211
TGCAAACA	-0.146
CGTTGCTC	0.105
ATCCCGCG	0.294
GTTGTAGA	-0.053
AAGCAGAT	0.114
CGTGTCTC	-0.14
ACGATACC	0.0391
ATGTCACC	-0.0166
TGCGATAA	0.209
CGTACACA	-0.0246
CCTTCCTC	-0.262
CACTAACG	-0.142
CGGTAAAA	0.0792
GACCTGCC	-0.0689
GAATATTC	0.24
GCGTGACC	0.00224
CACAGAGA	0.0268
AAGCCCAA	-0.122
CAACCGGA	-0.0402
CAATCTAG	-0.0575
AACGTGGC	-0.00648
CGATCCGC	0.0427

Sequence	PBM E-score
ACTCGGGA	-0.0463
AGTATTAC	-0.0315
AGTTACTG	0.0449
CCCTCAGG	0.0483
ATGATGTC	0.0758
ACTGAAAT	0.038
AGAAATGG	0.0198
CCTGGCTA	-0.156
CAGGAGTC	0.0361
CACAAGGC	-0.153
TGAGCTCA	0.155
AATGTCCG	0.0594
AGACTGGA	-0.0653
CACATGTG	0.0391
CATCAACA	0.15
AACAAAAC	0.131
ACCGACTG	-0.0866
ATAACAGA	0.0725
CAGTAGGA	-0.0996
CACCGGTC	-0.373
AGGGTTGA	0.03
AAATCCTT	-0.00642
TACCGGCA	-0.0644
CCCGGGCA	-0.111
CTCGAATC	-0.0229

Sequence	PBM E-score
AGACCGGG	-0.0868
ACGCAAGG	0.0308
CATGTCCG	-0.116
AGCGCTAG	-0.126
CTACCTCA	-0.118
CCTTCAGA	-0.132
CCGGACGA	-0.0224
CACACGCG	0.112
AATCTTCC	-0.09
GAGATTCC	0.086
AGAAGTCT	-0.196
ATGTTAGG	0.00988
ATCTAATG	-0.058
CCATTAGA	-0.195
AGAACACC	-0.0968
CACAAACA	-0.0179
CTACATTA	0.0766
ACACAAGA	0.0988
ATTACGAC	0.0725
GAGTCCCA	0.044
AGTTAGGG	0.0307
AAACTTAA	0.0948
CCCGTTCC	-0.00482
AATAGGAG	-0.286
GACGCAGC	-0.095

Sequence	PBM E-score
TAGAAAGA	-0.259
ACTAGGAG	-0.0682
AATTGAAG	-0.127
AGAAGCGC	0.101
ACTCTTAC	0.0693
CGGTCCGA	0.0617
AAGTGTAG	-0.0426
AAAAAGTG	0.0286
GTGTACGA	-0.0251
ACAAGCAC	-0.129
ATAGTGAT	0.0828
CCTGAAAA	-0.0155
GCCCAGAC	-0.259
CCGGTCGC	-0.141
AATAAGTA	0.111
GGGGTTCA	0.166
AGTCCAAC	0.0694
ATCTTTCA	0.131
AGTCTTGC	-0.0127
AGATTTGA	0.129
GCGCCCTA	-0.021
AAGCCCTT	-0.0684
AGGGGACG	0.0757
CATACCCA	-0.0106
CTGGTTCA	-0.118

Sequence	PBM E-score
AGAACAAC	-0.028
CGACACTA	0.0165
CATTTATA	0.0834
GCCGTGGA	-0.105
ATTATTTC	0.207
AAGTAATT	0.0546
AGGCCGTG	0.00953
CACAACGC	0.0775
CCTCCCAG	-0.282
CTATCCAG	-0.0187
AGTAGCTA	0.0901
GAATGCGA	-0.0117
GGTAGCAC	-0.259
GTTTCGGA	-0.0272
AGCATACA	-0.0259
CTCAAGCC	-0.254
CGGTGGAG	-0.163
CGGCCGAA	0.0577
GAGAGAGC	-0.171
AGCCTTAT	-0.0742
GACGGACA	0.21
GGGATCAA	-0.0876
ATTGTCTC	0.0123
TACTGTAA	0.0495
CGCCATGA	-0.0296

Sequence	PBM E-score
TGAAACCA	0.157
CAACTCGA	0.0207
CTATAGTA	0.152
AGTAGGCG	0.0694
ACGACTGA	0.035
ATTTCAAA	0.00814
CCTCCGCC	-0.142
GGTGGGAA	-0.0571
AATAGCTG	0.031
CACGCGCA	-0.0169
CGAGATGC	-0.0121
ATCCTTGA	-0.00132
ATATCAGG	0.0243
AATTTCCG	0.206
ACCCTCAA	-0.128
GGGACCCA	-0.00781
AGACGTGA	0.108
CCGATAGG	0.0212
AACTGAGC	-0.0554
ATCAATGG	-0.0247
CGTCATGC	0.0265
GTTTGTGA	-0.00935
AGACATGG	0.0758
AGGAGAAT	0.0168
ACTGCCAA	0.0418

Quoted from the listing.
Value for CCTCCGCC under PBM E-score: -0.142
Value for CCGATAGG under PBM E-score: 0.0212
Value for CAACTCGA under PBM E-score: 0.0207
Value for CGTCATGC under PBM E-score: 0.0265
Value for ATTTCAAA under PBM E-score: 0.00814
Value for ACTGCCAA under PBM E-score: 0.0418
Value for CTATAGTA under PBM E-score: 0.152

Next results follow:

Sequence	PBM E-score
AGTTGATC	0.137
AGAATATC	0.153
ACGAACGA	0.0396
AAGGTCTC	-0.174
ATCTAAAC	-0.091
GCAACGAA	0.187
AACCCCTG	0.055
TTCGCAAA	0.185
AATTGATG	0.195
ATGACGTC	0.195
AACAGGTT	-0.129
CAATCAGC	-0.0303
AGTTCATG	0.216
CATGCGCC	0.0619
AATTGCAA	0.0259
CCCAGCGC	-0.0665
AGGTACTG	-0.105
GGGACCAC	0.146
AGCCGATG	-0.00831
AAATTAAC	0.198
ACGGAGAT	-0.0589
ATTAGACA	0.0113
TTTCGAAA	0.178
TATTACGA	0.146
CCTCGTTC	-0.0458

Sequence	PBM E-score
AATCCCAA	0.0283
ATCAAACA	0.185
ATATTGAT	0.221
CGGGGCCA	0.034
CACACCTA	0.014
ACGCATAT	0.098
CAATTATG	0.0379
ACTGGCAT	-0.108
CGGCTCAG	0.0506
CATGATAA	0.0937
TGTAGACA	0.00823
ATCGTGTA	-0.0402
CTCGGAAC	0.0666
ACGCATAG	0.0951
CTGTTCTA	-0.104
GCATGTCC	-0.0894
ACGCATCT	-0.0297
CAGTCGCA	-0.13
ACCGAATC	-0.0562

In a second layout: results already given

| Sequence | PBM E-score |
| --- | --- |
| AAATCATA | 0.21 |
| CACAAGGC | -0.153 |
| CACCGGTC | -0.373 |
| AGTCCAAC | 0.0694 |
| ATCTTTCA | 0.131 |
| AGACATGG | 0.0758 |
| CAATCAGC | -0.0303 |
